Not every detail of the peptide structures is certain; ends, links or a residue may be inferred. Residues, ends and D or L forms follow the SMILES beside them.
System: head and neck cancer cells
Test: Dose-dependent cell apoptosis by MTT assay, cancer cell lines (Example 5)
Type: cell-based
Settings: MTT at 72 hours; FIG. 4, FIG. 5
Procedure: The cell line was made by the cells and the cell cultivation method described in example 2 as same.
After culturing the cancer cells and normal cells at 96 well-plate in 30-40% level 24-hours in advance by pre-seeding, treating with each reagent, and pre-evaluating killing ability by analyzing cell shape through microscope at 24 hours/48 hours/72 hours after, the quantitative analysis was done by MTT (3-(4,5-dimethylthiazol-2-yl)-2,5-diphenyltetrazolium bromide, a yellow tetrazole) assay which measures OD (optical density) values at 72 hours after.

CSCC[C@H](NC(=O)[C@H](CC(N)=O)NC(=O)[C@H](CCCNC(=N)N)NC(=O)CNC(=O)[C@H](C)NC(=O)[C@H](CCCCN)NC(=O)[C@H](Cc1ccccc1)NC(=O)CNC(=O)[C@H](CCCNC(=N)N)NC(=O)[C@H](CC(N)=O)NC(=O)c1ccc(NC(=O)COS(=O)(=O)c2ccc(C)cc2)cc1O)C(=O)N[C@@H](CCCNC(=N)N)C(=O)N[C@@H](CCCNC(=N)N)C(=O)N[C@@H](CCCCN)C(=O)N[C@@H](CC(C)C)C(=O)N[C@@H](Cc1ccccc1)C(=O)NCC(=O)N[C@H](C(=O)N[C@@H](CC(C)C)C(=O)N[C@@H](CCCNC(=N)N)C(=O)N[C@@H](CC(C)C)C(=O)O)C(C)C [pep98-NSC 74859] (HELM PEPTIDE1{[Cc1ccc(S(=O)(=O)OCC(=O)[*:2])cc1].[O=C(c1ccc(N[*:1])cc1O)[*:2]].N.R.G.F.K.A.G.R.N.M.R.R.K.L.F.G.V.L.R.L}$$$$V2.0)
concentration from which killing / apoptosis of cancer cells started: 5 µM | concentration killing almost the whole cancer cells: 20 µM
